Measured values as given in the supplement of paper PMC12764529.
± gives the half width of the 95% confidence interval. The two proteases of the assay disagree for many of these sequences.

How the values were obtained:
[1] = folding stability dG unfold from trypsin proteolysis; higher = more stable
Outline: (§1)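 Bayesian fitting of sequencing counts gave K50 for each design. Unfolding free energy followed by setting this against a sequence-predicted unfolded-state K50 and a shared folded-state K50, either per protease or with trypsin and chymotrypsin combined. The designs, under 80 residues and lacking cysteine, were digested in a PA-tagged cDNA display format at 11 threefold-diluted protease concentrations and without protease, and only those with AlphaFold2 dimer inter-PAE above 15 were kept.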

[2] = folding stability dG unfold from chymotrypsin proteolysis; higher = more stable
Outline: as §1

[3] = folding stability dG unfold (combined trypsin and chymotrypsin); higher = more stable
Outline: as §1

Row | Sequence | folding stability dG unfold [1] | folding stability dG unfold [2] | folding stability dG unfold [3]
1 | SAGGSAGGSLKPFPIEDITVQPRRNPDGNRYYQVSIRIKGPGRPINIPFPMDNPKKFLEDIIKSAGGSAGGS [r20_238_TrROS] | 0.519 ± 0.081 kcal/mol | 0.143 ± 0.12 kcal/mol | 0.285 ± 0.17 kcal/mol
2 | SSAEELARRLAAELAERLPPGARITDVRIERRADGTVTITVTVELPDGRTLTVTITLDLATGEITIEIHPSA [r9_219_TrROS_Hall] | 4.95 ± 0.16 kcal/mol | 4.35 ± 0.26 kcal/mol | 4.89 ± 0.19 kcal/mol
3 | SAGMININVTYRPNKNGQYWVTVKLSIMEPRPDPDGKQYMEMRQLEIEVPFKTPSDAPRAVKEIIKKISAGG [r19_218_TrROS] | 1.79 ± 0.22 kcal/mol | 4.32 ± 0.24 kcal/mol | 3.59 ± 0.34 kcal/mol
4 | SAGGSAGGSAGGSMTSIKITYPDGSTKSASVSVDPNTGKVTTTFTDYTLSPDAKFTTISSAGGSAGGSAGGS [r10_306_JUSTAS] | 0.372 ± 0.027 kcal/mol | 0.202 ± 0.11 kcal/mol | 0.325 ± 0.073 kcal/mol
5 | SAGGSAGGGRYLVLIEFENGFPLAYVFPSPEDVVEHTRLLEERLGYPIKRIEVYKIDPNGKAYASAGGSAGG [r6_162_TrMRF] | 2.41 ± 0.053 kcal/mol | 2.42 ± 0.12 kcal/mol | 2.53 ± 0.086 kcal/mol
6 | SAGGKLDPVTFRVRFKLKFGDKEYEVEVEVTVTLPIPEPAPIVPIPKTAGKNAGGIPNTNTIIVDDGSAGGS [r8_28_TrMRF] | 1.25 ± 0.047 kcal/mol | 3.94 ± 0.12 kcal/mol | 3.44 ± 0.23 kcal/mol
7 | SAGGTLKYKVTVTLSYPDKDGNLLSTGTYTFEVEVKPPKVIGVPADAEELAKELAEKTDTVVVPTDTGSAGG [r19_315_TrMRF] | 1.41 ± 0.12 kcal/mol | 3.63 ± 0.11 kcal/mol | 3.13 ± 0.22 kcal/mol
8 | SAGGSPISLEVSTSTLPDGTLRVTTTATSPDSSRSYTVTLDFPPSQPEEIPARAAAEAAAIAADPAVASAGG [r13_968_JUSTAS] | -0.552 ± 0.19 kcal/mol | 1.35 ± 0.058 kcal/mol | 0.907 ± 0.086 kcal/mol
9 | SAGGSAGGKAEKITLEIPNTGKKVEIIKPENKAIITVYDKNGKPIKTIVVPPNFPGIEDAVKADSAGGSAGG [r6_424_TrMRF] | -0.267 ± 0.068 kcal/mol | 0.773 ± 0.061 kcal/mol | 0.434 ± 0.12 kcal/mol
10 | SAGGSAGGSAPEVLPLDFDELVALAGSGEPRLVINEFPDGGYAVFSFTPPDRTIELLDPFPASAGGSAGGSA [r18_400_TrMRF] | 0.302 ± 0.19 kcal/mol | 3.02 ± 0.11 kcal/mol | 2.37 ± 0.29 kcal/mol
11 | SAGGSAGGKITITVEKNKNGKLTVRIEVEVDGKTYEIEIEADSLEEALEAAKKLGLKVKKVEIVSAGGSAGG [r6_40_TrROS_Hall] | 1.61 ± 0.078 kcal/mol | 3.69 ± 0.087 kcal/mol | 3.25 ± 0.19 kcal/mol
12 | KEVKTITVTIEITLPDGSKIKIEKTITFVKEDGYVVVEMKIEVTDKNGKKHTFTVKVVLKLKPGQSLEELLS [r1_226_TrROS_Hall] | 2.67 ± 0.26 kcal/mol | 5.75 ± 0.42 kcal/mol | > 6 kcal/mol
13 | SAGKSIKIPYIIRFPSPNGEPHLMRIKEVTINPKPGMVKIKFQMPGKKQTHTVPPNNIEILPDPEEILKSAG [r5_15_TrROS] | 0.116 ± 0.22 kcal/mol | -0.0282 ± 0.33 kcal/mol | -0.0216 ± 0.29 kcal/mol
14 | SAGGSAGGSAGKVIIIKVPKKDMTPEEVEKLAKELKEKFPDAKITVIEVKKDGYIIIKIDSAGGSAGGSAGG [r11_365_TrROS_Hall] | 1.91 ± 0.063 kcal/mol | 2.73 ± 0.079 kcal/mol | 2.47 ± 0.11 kcal/mol
15 | SAGGSAGGKKVYEIKGLTPEQIRALVKENKGKVTIYYKDGKKEEKTIKEGDEIAPGETVYIEVESAGGSAGG [r6_303_TrROS_Hall] | 0.858 ± 0.11 kcal/mol | 1.74 ± 0.13 kcal/mol | 1.56 ± 0.21 kcal/mol
16 | SAGGSAGGSAGEEKEYRIVVPFDSDDPEAFVRAVFDGIPPDVPIKAIDFNPELGYGVVVASAGGSAGGSAGG [r11_698_TrMRF] | 0.364 ± 0.091 kcal/mol | 1.07 ± 0.072 kcal/mol | 0.892 ± 0.11 kcal/mol
17 | SARIRIMVPPDFIMVRTPKGKMRMVDDPEEIEEIIKDILPVPIEIEPLPPNSPKFQKMMEMMMREQNGPSAG [r14_235_TrROS] | -0.264 ± 0.48 kcal/mol | 0.158 ± 0.23 kcal/mol | 0.0355 ± 0.18 kcal/mol
18 | SAGGKKIKVEVKIEIKIEKNPDGSYTIRIKITVKVTNENGEKFEVKVELEITLSEEELEKLKKLLEELSAGG [r13_412_TrROS_Hall] | 3.07 ± 0.24 kcal/mol | 3.75 ± 0.46 kcal/mol | 3.5 ± 0.39 kcal/mol

Row | Sequence | folding stability dG unfold [1] | folding stability dG unfold [2] | folding stability dG unfold [3]
19 | SAGGSAGGSAGMVTRRMTPEEAEKFIADLPSDWSVEEISPLPENDIVEIKIKVEPPFKLQSAGGSAGGSAGG [r17_98_JUSTAS] | -0.199 ± 0.09 kcal/mol | 1.76 ± 0.035 kcal/mol | 1.28 ± 0.097 kcal/mol
20 | SAGGMTIPSSYTLVEEKEELLPNGSKRYTYLIKPPSGDYIVIEVEEPPDGSVKIKEKKLTKEELAKKESAGG [r13_773_JUSTAS] | 0.508 ± 0.04 kcal/mol | 2.82 ± 0.06 kcal/mol | 2.4 ± 0.14 kcal/mol
21 | SAGEVKIEIKDGTITITVPPGVSEEELKELLKKLFPGYKITKIEIEKLPDGSLKITVHIEKLPPKPEKKSAG [r5_110_TrROS_Hall] | 0.444 ± 0.1 kcal/mol | 2.77 ± 0.12 kcal/mol | 2.26 ± 0.086 kcal/mol
22 | SSLMFKMKNEYPFPFGLFIKIEVWFHLRWDDGKLSLDIMVRIEIQPIPPVPPPPPPPKISPEQANDANKNSA [r9_965_TrROS] | 3.08 ± 0.19 kcal/mol | 5.33 ± 0.13 kcal/mol | 4.78 ± 0.27 kcal/mol
23 | SAEIEELAKALGAEVEIEEKDGKVKITIRLEGADDPNKEFTFEFKLENGETLKVKLVMKNGKIVKIEVESAG [r14_401_TrROS_Hall] | 2.96 ± 0.26 kcal/mol | 5.08 ± 0.16 kcal/mol | 4.95 ± 0.27 kcal/mol
24 | SAGGSAGGSALDSLVPDIDLRVRVEPVPDDPSILRADVELSDGLVLEVEFLPSGVARVSLSGKGSAGGSAGG [r6_122_TrMRF] | -0.0307 ± 0.084 kcal/mol | -0.246 ± 0.11 kcal/mol | -0.0927 ± 0.058 kcal/mol
25 | SAGGSAGGSAGMAEKLPSLSLFYLPETGDLVLIREETYVDPNDPDKSIVKQEIYVLPPEYSAGGSAGGSAGG [r17_241_TrMRF] | 0.984 ± 0.051 kcal/mol | 1.74 ± 0.13 kcal/mol | 1.51 ± 0.096 kcal/mol
26 | SAGGLKPGDWVIIMTIEFPFPFPDDDGKPQEWRIKITIWVPVEYDPPDGKLEIDNIFINIEIVPPDQISAGG [r13_312_TrROS] | 3.52 ± 0.22 kcal/mol | 4.55 ± 0.1 kcal/mol | 4.44 ± 0.18 kcal/mol
27 | SAGFEIKEVERTPNGMLKLTYELPGLRVKITWSPNRIESIAIEPLPPVPPPPKVPMERDPEDGNWKWKSAGG [r19_254_TrROS] | 0.455 ± 0.17 kcal/mol | 3.17 ± 0.062 kcal/mol | 2.26 ± 0.51 kcal/mol
28 | SAGGLKYRILIEVPLKVKIPGSGKEKTLSKFLEIEIEAESEEEALEFAKKLLEELSPENAKIVSIEKLSAGG [r19_209_TrMRF] | 2.04 ± 0.036 kcal/mol | 4.82 ± 0.056 kcal/mol | 4.41 ± 0.096 kcal/mol
29 | SPAVSKTYPVVEPGDGVTVRVDISYNPETGKYTATITFYPRTPGGSAEAPATVTKDFASLEEVKAWIEELAS [r1_288_JUSTAS] | 1.41 ± 0.11 kcal/mol | 4.09 ± 0.1 kcal/mol | 3.74 ± 0.15 kcal/mol
30 | SAGGWWMITVKIEFPGNGKPIEIMVFIDDDPEKAEEKVREIAEFLGFPGVKVEVEIIPIDPGDPAFKKSAGG [r13_682_TrROS] | 1.69 ± 0.057 kcal/mol | 4.4 ± 0.11 kcal/mol | 3.95 ± 0.29 kcal/mol
31 | SAGGSAGGMVIEGRIKIVSPDGGEKEIPVVLFIPESFPDANLEELAEAIAKEILPPGYKADFEGSAGGSAGG [r6_821_TrMRF] | 0.601 ± 0.065 kcal/mol | 1 ± 0.023 kcal/mol | 0.879 ± 0.17 kcal/mol
32 | SAGGDGVYLIYFPAEGRFALVELDTTTKTAHVRFFGLPETLTFEVDDPLALARALTSPDFPVLVLPVSAGGS [r8_95_TrMRF] | 2.03 ± 0.049 kcal/mol | 4.17 ± 0.074 kcal/mol | 3.74 ± 0.13 kcal/mol
33 | SAGMVIRDPGDGKYIYISPGSGEIEIFNDGKEKKIPFPPGEEMEIEIDPDDGTITITFPNNGRELEIPLSAG [r5_858_TrROS] | 0.598 ± 0.049 kcal/mol | 0.846 ± 0.11 kcal/mol | 0.699 ± 0.16 kcal/mol
34 | STLTVEEIEELRKLGFELIEVTEDGRYRFYNKETKEVIEVEVKPVPPPKKIELPEEVKSKEEREKLLEELSA [r9_649_TrROS_Hall] | 1.51 ± 0.08 kcal/mol | 3.96 ± 0.18 kcal/mol | 3.66 ± 0.39 kcal/mol
35 | SAGGEISFNFRWPSLEEAIEFVNEIAQLFPGFDVNVEYNPGNGWFHVTIKPKPVPPPDPEEAEENKKSAGGS [r16_674_TrROS] | 1.28 ± 0.099 kcal/mol | 4.66 ± 0.15 kcal/mol | 4.34 ± 0.14 kcal/mol
36 | SAGGSAMITVKLEGKPVTVEILSREPKGRLVKAQAVVHRPDDGTEKTVSGLLSEEEIEKAIEEALASAGGSA [r15_944_JUSTAS] | -0.917 ± 0.32 kcal/mol | 0.143 ± 0.11 kcal/mol | -0.15 ± 0.12 kcal/mol

Entries 19 to 25, reprinted for reference:
Row | Sequence | folding stability dG unfold [1] | folding stability dG unfold [2] | folding stability dG unfold [3]
19 | SAGGSAGGSAGMVTRRMTPEEAEKFIADLPSDWSVEEISPLPENDIVEIKIKVEPPFKLQSAGGSAGGSAGG [r17_98_JUSTAS] | -0.199 ± 0.09 kcal/mol | 1.76 ± 0.035 kcal/mol | 1.28 ± 0.097 kcal/mol
20 | SAGGMTIPSSYTLVEEKEELLPNGSKRYTYLIKPPSGDYIVIEVEEPPDGSVKIKEKKLTKEELAKKESAGG [r13_773_JUSTAS] | 0.508 ± 0.04 kcal/mol | 2.82 ± 0.06 kcal/mol | 2.4 ± 0.14 kcal/mol
21 | SAGEVKIEIKDGTITITVPPGVSEEELKELLKKLFPGYKITKIEIEKLPDGSLKITVHIEKLPPKPEKKSAG [r5_110_TrROS_Hall] | 0.444 ± 0.1 kcal/mol | 2.77 ± 0.12 kcal/mol | 2.26 ± 0.086 kcal/mol
22 | SSLMFKMKNEYPFPFGLFIKIEVWFHLRWDDGKLSLDIMVRIEIQPIPPVPPPPPPPKISPEQANDANKNSA [r9_965_TrROS] | 3.08 ± 0.19 kcal/mol | 5.33 ± 0.13 kcal/mol | 4.78 ± 0.27 kcal/mol
23 | SAEIEELAKALGAEVEIEEKDGKVKITIRLEGADDPNKEFTFEFKLENGETLKVKLVMKNGKIVKIEVESAG [r14_401_TrROS_Hall] | 2.96 ± 0.26 kcal/mol | 5.08 ± 0.16 kcal/mol | 4.95 ± 0.27 kcal/mol
24 | SAGGSAGGSALDSLVPDIDLRVRVEPVPDDPSILRADVELSDGLVLEVEFLPSGVARVSLSGKGSAGGSAGG [r6_122_TrMRF] | -0.0307 ± 0.084 kcal/mol | -0.246 ± 0.11 kcal/mol | -0.0927 ± 0.058 kcal/mol
25 | SAGGSAGGSAGMAEKLPSLSLFYLPETGDLVLIREETYVDPNDPDKSIVKQEIYVLPPEYSAGGSAGGSAGG [r17_241_TrMRF] | 0.984 ± 0.051 kcal/mol | 1.74 ± 0.13 kcal/mol | 1.51 ± 0.096 kcal/mol
